The text below walks through data of PMC12797000.

Sequences of proteins named here, by UniProt entry; tags and fusion partners are left off.
UniProt P23595: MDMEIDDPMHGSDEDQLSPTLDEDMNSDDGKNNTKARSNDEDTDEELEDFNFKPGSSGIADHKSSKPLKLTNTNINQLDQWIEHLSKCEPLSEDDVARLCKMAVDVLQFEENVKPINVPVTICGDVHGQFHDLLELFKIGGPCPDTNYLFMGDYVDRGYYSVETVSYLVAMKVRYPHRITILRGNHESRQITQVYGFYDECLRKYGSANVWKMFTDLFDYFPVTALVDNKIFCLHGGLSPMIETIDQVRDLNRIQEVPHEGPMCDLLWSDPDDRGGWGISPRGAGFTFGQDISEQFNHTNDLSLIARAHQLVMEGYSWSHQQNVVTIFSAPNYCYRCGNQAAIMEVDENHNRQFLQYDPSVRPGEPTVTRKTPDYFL

These are yes or no findings as the source states them, for the method shown. Binding seen in cells or lysates may run through a third protein. Here binding means that the protein was enriched with, or labelled near, the bait; the list need not be complete. Where a sequence is shown, tags or fusion partners need not be part of it.

Experiment [1] addresses T1, Cdc55^reg tagged with protein A (Cdc55^reg-ProtA) (yeast (Saccharomyces cerevisiae, BY4741)) (UniProt Q00362).
T1 sequence: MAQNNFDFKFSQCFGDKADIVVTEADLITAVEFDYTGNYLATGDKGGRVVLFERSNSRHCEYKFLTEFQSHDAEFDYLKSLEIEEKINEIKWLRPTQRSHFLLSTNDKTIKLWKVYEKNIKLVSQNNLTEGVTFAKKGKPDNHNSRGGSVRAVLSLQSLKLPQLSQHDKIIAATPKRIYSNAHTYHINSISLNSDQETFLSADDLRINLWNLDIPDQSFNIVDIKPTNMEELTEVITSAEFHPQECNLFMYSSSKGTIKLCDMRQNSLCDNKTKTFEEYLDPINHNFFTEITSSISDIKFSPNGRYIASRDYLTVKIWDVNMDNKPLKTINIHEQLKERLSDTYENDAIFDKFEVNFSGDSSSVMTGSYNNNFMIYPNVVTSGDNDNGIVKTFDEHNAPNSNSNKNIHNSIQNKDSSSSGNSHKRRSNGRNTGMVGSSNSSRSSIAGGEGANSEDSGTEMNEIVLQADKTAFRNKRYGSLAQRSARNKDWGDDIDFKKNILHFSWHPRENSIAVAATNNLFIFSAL
Put plainly: affinity purification with mass spectrometry; Cdc55^reg-ProtA from BY4741 yeast lysate on IgG beads, eluted by TEV protease; product analysed by mass spectrometry (LFQ intensity); control: strain without ProtA.

Experiment [2] deals with T2, Psy2^reg tagged with protein A (Psy2^reg-ProtA) (yeast (Saccharomyces cerevisiae, BY4741)) (UniProt P40164).
T2 sequence: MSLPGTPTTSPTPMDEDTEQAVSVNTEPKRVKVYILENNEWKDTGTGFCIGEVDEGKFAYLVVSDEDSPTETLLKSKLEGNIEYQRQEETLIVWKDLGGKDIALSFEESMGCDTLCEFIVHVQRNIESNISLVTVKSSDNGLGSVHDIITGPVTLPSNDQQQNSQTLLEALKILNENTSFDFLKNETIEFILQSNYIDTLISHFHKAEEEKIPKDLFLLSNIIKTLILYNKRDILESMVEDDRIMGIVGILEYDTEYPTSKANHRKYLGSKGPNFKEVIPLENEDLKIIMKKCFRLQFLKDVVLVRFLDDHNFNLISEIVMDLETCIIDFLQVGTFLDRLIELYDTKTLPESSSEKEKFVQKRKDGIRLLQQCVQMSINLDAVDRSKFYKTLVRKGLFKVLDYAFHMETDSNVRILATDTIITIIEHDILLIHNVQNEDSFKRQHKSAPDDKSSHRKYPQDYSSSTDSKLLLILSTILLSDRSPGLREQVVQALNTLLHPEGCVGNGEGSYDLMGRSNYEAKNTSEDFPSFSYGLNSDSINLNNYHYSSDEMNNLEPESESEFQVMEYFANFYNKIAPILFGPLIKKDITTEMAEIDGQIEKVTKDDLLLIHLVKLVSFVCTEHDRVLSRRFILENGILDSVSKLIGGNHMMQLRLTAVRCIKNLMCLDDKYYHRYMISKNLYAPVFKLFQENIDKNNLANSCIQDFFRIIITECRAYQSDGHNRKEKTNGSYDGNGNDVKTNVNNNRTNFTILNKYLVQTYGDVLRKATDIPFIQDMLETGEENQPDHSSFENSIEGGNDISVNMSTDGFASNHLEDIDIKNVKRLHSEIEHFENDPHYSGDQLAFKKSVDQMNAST
The experiment can be described thus: affinity purification with mass spectrometry; Psy2^reg-ProtA from BY4741 wild-type yeast lysate on IgG beads, eluted by TEV protease; product analysed by mass spectrometry (LFQ intensity).

The target in experiment [3] is T2, Psy2^reg tagged with protein A (Psy2^reg-ProtA) (yeast (Saccharomyces cerevisiae, BY4741)). Put plainly: affinity purification with mass spectrometry; Psy2^reg-ProtA from BY4741 pph3Δ yeast lysate (no catalytic subunit Pph3) on IgG beads, eluted by TEV protease; product analysed by mass spectrometry.

Turning to “Pph22^cat, catalytic subunit of PP2A (from UniProt P23595 1-377) (enzyme)”, in experiment [1], the binding result is recorded as “binds”.

B1: Psy4^reg, regulatory subunit of PP4 (protein, UniProt P38193 1-441)
chain: MSSTMLDDVDNNMMGIKSISLYELLSDVVKQGDKTRLVTAGPEQVLPDLIRHITETIPFDLFINLKNEMNDARNLVTRLNWLGKFLNDNFLQNHTFPFTILRICELCYDPFKYYKINELEKFVNALEKCCMVTSSWQVFDKTHGEKQEDDKEKDINFIKNQEDVSLMKIPWMTENNTRELAPFIREIDSIMSVNLGYDDEDEEEGFFDGDEDREMGNKSKRNVLLKDENFMVEEYYEDDCGINDDNSDNKGQNCQSDVTKNNSDDEDDDDNDDDYREDGADEDDEDDDHMGSTDDDEDDDEDRQAGESTKVQNFDKKNETPRKRKPTDLDNFEYDESPSFTNMDLTTPKKYKHTATGRFSIIESPSSSLLNAMDGSNEISSSQEEEKEDAHENHEGRSEGLLPGDELVSPSMSSSQEDKMVAIAGITYRENISSPLGKKSR
B1: the results for the binding entry in experiment [2] and in experiment [3] were “binds” and “binds weakly”, respectively.

B2: Pph3^cat, catalytic subunit of PP4 (enzyme, UniProt P32345 1-308)
chain: MMDLDKIIASLRDGKHIPEETVFRLCLNSQELLMNEGNVTQVDTPVTICGDIHGQLHDLLTLFEKSGGVEKTRYIFLGDFVDRGFYSLESFLLLLCYKLRYPDRITLIRGNHETRQITKVYGFYDEVVRKYGNSNVWRYCCEVFDYLSLGAIINNSIFCVHGGLSPDMTTVDEIRTIDRKQEVPHEGAMCDLLWSDPEDVDTWSLSPRGAGFLFGKREVDQFLEKNNVELIARAHQLVMEGYKEMFDGGLVTVWSAPNYCYRCGNVAAVLKIDDDLNREYTIFEAVQAQNEVGNAIIPTKKSQMDYFL
As for B2, the binding entry in experiment [2] was “binds”.
